# Laboratory results as given in article PMC11111408, “Concurrent inhibition of oncogenic and wild-type RAS-GTP for cancer therapy” (Nature, 2024).
# The source gives many values for each of these; only a part stands here.
# Test system: PRISM DNA-barcoded human tumour cell lines
# Assay: PRISM pooled cell viability assay;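 note: 8 threefold dilutions from 10 µM with 5 days of exposure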
# Type: cell-based
# Set-up: Area under the curve (AUC): scale not given here
# Settings: for PRISM AUC: KRAS MUT
# Protocol: Cells were then lysed in TCL mRNA lysis buffer, and then PCR with reverse transcription was performed. Detection of the barcodes and univariate and multivariate analysis was then performed as previously described. Data analysis is described in the Supplementary Methods. Up-to-date code for our analysis is at the github link: https://github.com/cmap/dockerized_mts.
# For every gene with non-silent mutations in at least four cell-lines, we compared the AUC values between cells with and without those mutations using a t-test. This analysis was carried out for: (i) the full dataset; (ii) excluding cell lines with non-silent KRAS mutations; and (iii) excluding cell lines that have either KRAS or NRAS non-silent mutations.
# [1] = RCHACV_HAEMATOPOIETIC_AND_LYMPHOID_TISSUE
smiles,measurement,setting,value
CCn1c(-c2cc(N3CCN(C4CC4)CC3)cnc2[C@H](C)OC)c2c3cc(ccc31)-c1csc(n1)C[C@H](NC(=O)[C@H]1[C@@H]3COC[C@@H]31)C(=O)N1CCC[C@H](N1)C(=O)OCC(C)(C)C2 [RMC-7977],Area under the curve (AUC),PRISM cell line U343_CENTRAL_NERVOUS_SYSTEM,0.7211
same,Area under the curve (AUC),PRISM cell line U937_HAEMATOPOIETIC_AND_LYMPHOID_TISSUE,0.6008
same,Area under the curve (AUC),PRISM cell line U2940_HAEMATOPOIETIC_AND_LYMPHOID_TISSUE,0.8649
same,Area under the curve (AUC),PRISM cell line U2973_HAEMATOPOIETIC_AND_LYMPHOID_TISSUE,0.8907
same,Area under the curve (AUC),PRISM cell line UACC62_SKIN,0.8808
same,Area under the curve (AUC),PRISM cell line UACC257_SKIN,0.8233
same,Area under the curve (AUC),PRISM cell line UBLC1_URINARY_TRACT,0.4827
same,Area under the curve (AUC),PRISM cell line ULA_HAEMATOPOIETIC_AND_LYMPHOID_TISSUE,0.734
same,Area under the curve (AUC),PRISM cell line UMRC3_KIDNEY,0.8855
same,Area under the curve (AUC),PRISM cell line UMRC7_KIDNEY,0.7617
same,Area under the curve (AUC),PRISM cell line UMUC1_URINARY_TRACT,0.5901
same,Area under the curve (AUC),PRISM cell line UMUC5_URINARY_TRACT,0.4821
same,Area under the curve (AUC),PRISM cell line UMUC6_URINARY_TRACT,0.3557
same,Area under the curve (AUC),PRISM cell line UMUC7_URINARY_TRACT,0.6909
same,Area under the curve (AUC),PRISM cell line UMUC10_URINARY_TRACT,0.7802
same,Area under the curve (AUC),PRISM cell line UMUC11_URINARY_TRACT,0.7319
same,Area under the curve (AUC),PRISM cell line UMUC13_URINARY_TRACT,0.527
same,Area under the curve (AUC),PRISM cell line UO31_KIDNEY,0.8639
same,Area under the curve (AUC),PRISM cell line UPCISCC072_UPPER_AERODIGESTIVE_TRACT,0.6301
same,Area under the curve (AUC),PRISM cell line UPCISCC111_UPPER_AERODIGESTIVE_TRACT,0.5006
same,Area under the curve (AUC),PRISM cell line UPCISCC116_UPPER_AERODIGESTIVE_TRACT,0.3974
same,Area under the curve (AUC),PRISM cell line UW228_CENTRAL_NERVOUS_SYSTEM,0.5725
same,Area under the curve (AUC),PRISM cell line VAESBJ_SOFT_TISSUE,0.9566
same,Area under the curve (AUC),PRISM cell line VAL_HAEMATOPOIETIC_AND_LYMPHOID_TISSUE,0.8253
same,Area under the curve (AUC),PRISM cell line VMCUB1_URINARY_TRACT,0.5136
same,Area under the curve (AUC),PRISM cell line VMRCRCW_KIDNEY,0.9168
same,Area under the curve (AUC),PRISM cell line VMRCRCZ_KIDNEY,0.799
same,Area under the curve (AUC),PRISM cell line WAOSEL_HAEMATOPOIETIC_AND_LYMPHOID_TISSUE,0.6372
same,Area under the curve (AUC),PRISM cell line WERIRB1_AUTONOMIC_GANGLIA,0.7995
same,Area under the curve (AUC),PRISM cell line WM88_SKIN,0.8433
same,Area under the curve (AUC),PRISM cell line WM793_SKIN,0.8212
same,Area under the curve (AUC),PRISM cell line WM983B_SKIN,0.8889
same,Area under the curve (AUC),PRISM cell line WM1799_SKIN,0.895
same,Area under the curve (AUC),PRISM cell line WM2664_SKIN,1
same,Area under the curve (AUC),PRISM cell line WSUDLCL2_HAEMATOPOIETIC_AND_LYMPHOID_TISSUE,0.7398
same,Area under the curve (AUC),PRISM cell line YAPC_PANCREAS,0.3838
same,Area under the curve (AUC),PRISM cell line YD8_UPPER_AERODIGESTIVE_TRACT,0.6798
same,Area under the curve (AUC),PRISM cell line YD10B_UPPER_AERODIGESTIVE_TRACT,0.5071
same,Area under the curve (AUC),PRISM cell line YD15_SALIVARY_GLAND,0.6061
same,Area under the curve (AUC),PRISM cell line YD38_UPPER_AERODIGESTIVE_TRACT,0.3904
same,Area under the curve (AUC),PRISM cell line YH13_CENTRAL_NERVOUS_SYSTEM,0.8657
same,Area under the curve (AUC),PRISM cell line YKG1_CENTRAL_NERVOUS_SYSTEM,0.6932
same,Area under the curve (AUC),PRISM cell line YSCCC_BILIARY_TRACT,0.8108
same,Area under the curve (AUC),PRISM cell line ZR751_BREAST,0.889
same,Area under the curve (AUC),PSN1_PANCREAS,0.3751
same,Area under the curve (AUC),QGP1_PANCREAS,0.5441
same,Area under the curve (AUC),RBE_BILIARY_TRACT,0.4809
same,Area under the curve (AUC),RCC10RGB_KIDNEY,0.8801
same,Area under the curve (AUC),[1],0.8967
same,PRISM AUC,[1],0.7583
same,Area under the curve (AUC),RCK8_HAEMATOPOIETIC_AND_LYMPHOID_TISSUE,0.7966
same,Area under the curve (AUC),RCM1_LARGE_INTESTINE,0.3302
same,Area under the curve (AUC),RDES_BONE,0.9122
same,Area under the curve (AUC),RD_SOFT_TISSUE,0.3974
same,Area under the curve (AUC),RERFGC1B_STOMACH,0.6809
same,Area under the curve (AUC),RERFLCAD1_LUNG,0.7707
same,PRISM AUC,RERFLCAD1_LUNG,0.7443
same,Area under the curve (AUC),RERFLCAD2_LUNG,0.4397
same,Area under the curve (AUC),RERFLCAI_LUNG,0.7378
same,Area under the curve (AUC),RERFLCKJ_LUNG,0.8933
same,Area under the curve (AUC),RERFLCMS_LUNG,0.8678
same,Area under the curve (AUC),RH4_SOFT_TISSUE,0.8793
same,Area under the curve (AUC),RH28_SOFT_TISSUE,1
same,Area under the curve (AUC),RH30_SOFT_TISSUE,0.7611
same,Area under the curve (AUC),RH36_SOFT_TISSUE,0.5745
same,Area under the curve (AUC),RI1_HAEMATOPOIETIC_AND_LYMPHOID_TISSUE,0.7813
same,Area under the curve (AUC),RKN_SOFT_TISSUE,0.3164
same,Area under the curve (AUC),RKO_LARGE_INTESTINE,0.8838
same,Area under the curve (AUC),RL952_ENDOMETRIUM,0.3899
same,Area under the curve (AUC),RL_HAEMATOPOIETIC_AND_LYMPHOID_TISSUE,0.698
same,Area under the curve (AUC),RMGI_OVARY,0.6195
same,Area under the curve (AUC),RMSYM_SOFT_TISSUE,0.8685
same,Area under the curve (AUC),RMUGS_OVARY,0.8513
same,Area under the curve (AUC),RO82W1_THYROID,0.6499
same,Area under the curve (AUC),RPMI7951_SKIN,0.8835
same,Area under the curve (AUC),RPMI8402_HAEMATOPOIETIC_AND_LYMPHOID_TISSUE,0.8325
same,Area under the curve (AUC),RT4_URINARY_TRACT,0.5474
same,Area under the curve (AUC),RT112_URINARY_TRACT,0.3119
same,Area under the curve (AUC),RVH421_SKIN,0.8271
same,Area under the curve (AUC),S117_THYROID,0.6069
same,Area under the curve (AUC),SAOS2_BONE,1
same,Area under the curve (AUC),SBC5_LUNG,0.7851
same,Area under the curve (AUC),SCABER_URINARY_TRACT,0.5726
same,Area under the curve (AUC),SCC3_HAEMATOPOIETIC_AND_LYMPHOID_TISSUE,0.5368
same,Area under the curve (AUC),SCC9_UPPER_AERODIGESTIVE_TRACT,0.4075
same,Area under the curve (AUC),SCC25_UPPER_AERODIGESTIVE_TRACT,0.552
same,Area under the curve (AUC),SCLC21H_LUNG,0.7946
same,Area under the curve (AUC),SEM_HAEMATOPOIETIC_AND_LYMPHOID_TISSUE,0.7824
same,Area under the curve (AUC),SF126_CENTRAL_NERVOUS_SYSTEM,0.8289
same,Area under the curve (AUC),SF295_CENTRAL_NERVOUS_SYSTEM,0.777
same,Area under the curve (AUC),SF539_CENTRAL_NERVOUS_SYSTEM,0.6596
same,Area under the curve (AUC),SG231_BILIARY_TRACT,0.2187
same,Area under the curve (AUC),SH4_SKIN,0.9047
same,Area under the curve (AUC),SH10TC_STOMACH,0.6214
same,Area under the curve (AUC),SHMAC5_PROSTATE,0.456
same,Area under the curve (AUC),SHP77_LUNG,0.873
same,Area under the curve (AUC),SIMA_AUTONOMIC_GANGLIA,0.8241
same,Area under the curve (AUC),SISO_CERVIX,0.4817
same,Area under the curve (AUC),SJSA1_BONE,0.6167
same,PRISM AUC,SJSA1_BONE,0.5047
same,Area under the curve (AUC),SKES1_BONE,0.8287
same,Area under the curve (AUC),SKGII_ENDOMETRIUM,0.7172
same,Area under the curve (AUC),SKGI_ENDOMETRIUM,0.6094
same,Area under the curve (AUC),SKGT2_STOMACH,0.6419
same,Area under the curve (AUC),SKGT4_OESOPHAGUS,0.4574
same,Area under the curve (AUC),SKHEP1_LIVER,0.8479
same,Area under the curve (AUC),SKLMS1_SOFT_TISSUE,0.6292
same,Area under the curve (AUC),SKLU1_LUNG,0.439
same,Area under the curve (AUC),SKM1_HAEMATOPOIETIC_AND_LYMPHOID_TISSUE,0.2381
same,Area under the curve (AUC),SKMEL2_SKIN,0.711
same,Area under the curve (AUC),SKMEL3_SKIN,1
same,Area under the curve (AUC),SKMEL5_SKIN,0.8732
same,Area under the curve (AUC),SKMEL24_SKIN,0.7818
same,Area under the curve (AUC),SKMEL28_SKIN,1
same,Area under the curve (AUC),SKMEL30_SKIN,0.552
same,Area under the curve (AUC),SKMES1_LUNG,0.6852
same,Area under the curve (AUC),SKNAS_AUTONOMIC_GANGLIA,0.5373
same,Area under the curve (AUC),SKNBE2_AUTONOMIC_GANGLIA,0.6192
